Laboratory results from the supplement of paper PMC6411743.
± gives the standard deviation of the averaged measurements. The list shows a part of the results, in another mix than the full data.

Columns and labels:
Experiment in all cases: NP40-soluble protein abundance relative to vehicle (solubility fold change) (ratio); higher = more soluble protein in presence of ATP
CALR = target: T1, CALR (UniProt P27797)
T1 sequence (whole entry): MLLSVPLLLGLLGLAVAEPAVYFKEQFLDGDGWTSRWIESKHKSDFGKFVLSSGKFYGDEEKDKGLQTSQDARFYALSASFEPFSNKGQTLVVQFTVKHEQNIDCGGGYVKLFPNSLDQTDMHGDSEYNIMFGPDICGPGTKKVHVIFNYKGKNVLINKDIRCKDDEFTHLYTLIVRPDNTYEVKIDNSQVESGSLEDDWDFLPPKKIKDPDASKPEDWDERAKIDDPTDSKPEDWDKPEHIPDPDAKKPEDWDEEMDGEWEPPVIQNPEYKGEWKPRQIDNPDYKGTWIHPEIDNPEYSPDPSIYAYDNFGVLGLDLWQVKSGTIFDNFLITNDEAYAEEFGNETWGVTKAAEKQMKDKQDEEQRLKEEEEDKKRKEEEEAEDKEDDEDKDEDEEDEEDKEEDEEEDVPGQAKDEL
How it was run: (§1)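 Jurkat crude lysate (Dounce-homogenised) was treated with eight concentrations from 0.1 to 10 mM for 10 min at room temperature, then 3 min at 37 °C. It was solubilised with 0.8% NP40 and benzonase (60 min, 4 °C) and ultracentrifuged, and the supernatant was TMT-labelled for LC-MS/MS. Intensities were vsn-normalised, and the value is the fold change against the NP40-processed vehicle per replicate, from three independent experiments.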

GALNS = target: T2, GALNS (UniProt P34059)
T2 sequence (whole entry): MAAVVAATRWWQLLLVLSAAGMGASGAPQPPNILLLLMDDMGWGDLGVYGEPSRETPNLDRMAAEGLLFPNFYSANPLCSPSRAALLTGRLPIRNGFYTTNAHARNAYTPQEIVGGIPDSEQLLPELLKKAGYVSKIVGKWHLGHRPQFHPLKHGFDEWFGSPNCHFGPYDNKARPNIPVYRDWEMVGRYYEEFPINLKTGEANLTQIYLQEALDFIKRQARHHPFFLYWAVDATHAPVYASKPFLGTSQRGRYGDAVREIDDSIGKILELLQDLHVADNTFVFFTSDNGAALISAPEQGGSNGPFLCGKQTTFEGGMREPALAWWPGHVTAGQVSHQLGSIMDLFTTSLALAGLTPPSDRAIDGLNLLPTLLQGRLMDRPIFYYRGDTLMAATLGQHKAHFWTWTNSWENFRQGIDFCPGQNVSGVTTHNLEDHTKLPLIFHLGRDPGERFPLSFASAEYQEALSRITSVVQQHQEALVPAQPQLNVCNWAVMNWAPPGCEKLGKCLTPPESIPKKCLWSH
How it was run: as §1

GART = target: T3, GART (UniProt P22102)
T3 sequence (whole entry): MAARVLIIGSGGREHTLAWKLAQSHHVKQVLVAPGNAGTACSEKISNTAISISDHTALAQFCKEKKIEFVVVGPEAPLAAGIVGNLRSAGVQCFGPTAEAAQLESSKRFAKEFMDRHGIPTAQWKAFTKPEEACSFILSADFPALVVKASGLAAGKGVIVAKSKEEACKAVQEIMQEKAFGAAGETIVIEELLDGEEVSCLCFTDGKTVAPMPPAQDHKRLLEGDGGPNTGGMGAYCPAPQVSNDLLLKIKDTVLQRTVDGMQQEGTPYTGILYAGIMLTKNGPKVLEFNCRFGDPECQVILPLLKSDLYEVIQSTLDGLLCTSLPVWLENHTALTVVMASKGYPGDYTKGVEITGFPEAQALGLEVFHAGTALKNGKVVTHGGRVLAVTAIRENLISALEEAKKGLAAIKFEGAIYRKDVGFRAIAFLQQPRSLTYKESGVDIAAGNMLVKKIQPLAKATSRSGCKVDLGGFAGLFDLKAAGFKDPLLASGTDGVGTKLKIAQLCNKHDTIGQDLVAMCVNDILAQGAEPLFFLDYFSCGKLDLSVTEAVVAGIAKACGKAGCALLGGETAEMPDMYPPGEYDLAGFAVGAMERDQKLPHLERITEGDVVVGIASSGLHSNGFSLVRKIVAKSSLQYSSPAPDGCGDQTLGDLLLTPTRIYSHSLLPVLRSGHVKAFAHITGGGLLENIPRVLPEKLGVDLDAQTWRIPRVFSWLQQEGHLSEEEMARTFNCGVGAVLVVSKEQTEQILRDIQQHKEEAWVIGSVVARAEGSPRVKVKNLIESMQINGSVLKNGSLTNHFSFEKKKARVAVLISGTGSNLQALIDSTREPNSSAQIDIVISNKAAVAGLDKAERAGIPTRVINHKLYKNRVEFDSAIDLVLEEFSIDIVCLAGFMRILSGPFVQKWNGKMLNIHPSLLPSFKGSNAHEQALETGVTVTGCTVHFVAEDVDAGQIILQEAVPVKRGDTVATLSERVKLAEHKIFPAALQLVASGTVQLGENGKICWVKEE
How it was run: as §1

GSTM3 = target: T4, GSTM3 (UniProt P21266)
T4 sequence (whole entry): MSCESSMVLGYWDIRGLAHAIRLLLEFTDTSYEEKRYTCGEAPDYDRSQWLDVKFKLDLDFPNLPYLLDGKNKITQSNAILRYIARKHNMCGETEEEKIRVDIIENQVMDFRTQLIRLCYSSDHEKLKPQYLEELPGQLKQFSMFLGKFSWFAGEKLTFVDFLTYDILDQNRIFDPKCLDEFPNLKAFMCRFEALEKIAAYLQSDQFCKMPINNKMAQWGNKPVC
How it was run: as §1

JUND = target: T5, JUND (UniProt P17535)
T5 sequence (whole entry): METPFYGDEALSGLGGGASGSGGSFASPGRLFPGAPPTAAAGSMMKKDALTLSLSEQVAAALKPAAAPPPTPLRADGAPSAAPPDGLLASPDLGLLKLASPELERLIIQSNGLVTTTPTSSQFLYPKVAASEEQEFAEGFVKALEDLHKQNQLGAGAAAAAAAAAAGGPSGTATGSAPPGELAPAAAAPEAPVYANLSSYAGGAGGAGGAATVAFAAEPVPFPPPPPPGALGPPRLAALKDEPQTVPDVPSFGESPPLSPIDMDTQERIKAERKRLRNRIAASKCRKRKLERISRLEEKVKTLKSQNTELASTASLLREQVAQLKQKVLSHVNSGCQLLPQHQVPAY
How it was run: as §1

PHB = target: T6, PHB (UniProt P35232)
T6 sequence (whole entry): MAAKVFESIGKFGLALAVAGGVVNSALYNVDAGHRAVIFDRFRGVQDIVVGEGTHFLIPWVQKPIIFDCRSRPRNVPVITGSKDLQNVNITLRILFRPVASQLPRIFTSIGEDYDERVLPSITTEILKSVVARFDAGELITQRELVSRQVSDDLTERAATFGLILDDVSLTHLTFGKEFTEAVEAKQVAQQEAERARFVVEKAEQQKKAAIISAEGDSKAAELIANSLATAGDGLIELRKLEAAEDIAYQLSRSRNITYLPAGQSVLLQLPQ
How it was run: as §1

Compound `Nc1ncnc2c1ncn2[C@@H]1O[C@H](COP(=O)(O)OP(=O)(O)OP(=O)(O)O)[C@@H](O)[C@H]1O` [adenosine triphosphate] has an NP40-soluble protein abundance (CALR; concentration: 1mM) of 0.933 ± 0.075, an NP40-soluble protein abundance (CALR; concentration: 2mM) of 0.911 ± 0.042 and an NP40-soluble protein abundance (CALR; concentration: 4mM) of 0.871 ± 0.026. It also gave an NP40-soluble protein abundance (CALR; concentration: 6mM) of 0.942 ± 0.037, an NP40-soluble protein abundance (CALR; concentration: 8mM) of 0.882 ± 0.05 and an NP40-soluble protein abundance (CALR; concentration: 10mM) of 0.903 ± 0.054. The NP40-soluble protein abundance (GALNS; concentration: 1mM) was 1 ± 0.06, the NP40-soluble protein abundance (GALNS; concentration: 2mM) was 0.963 ± 0.013 and the NP40-soluble protein abundance (GALNS; concentration: 4mM) was 0.929 ± 0.038. For the same compound, the NP40-soluble protein abundance (GALNS; concentration: 6mM) was 0.929 ± 0.014, the NP40-soluble protein abundance (GALNS; concentration: 8mM) was 0.885 ± 0.05 and the NP40-soluble protein abundance (GALNS; concentration: 10mM) was 0.958 ± 0.04. For the same compound, the NP40-soluble protein abundance (GART; concentration: 1mM) was 0.988 ± 0.043, the NP40-soluble protein abundance (GART; concentration: 2mM) was 0.97 ± 0.035 and the NP40-soluble protein abundance (GART; concentration: 4mM) was 0.943 ± 0.039. The NP40-soluble protein abundance (GART; concentration: 6mM) was 0.924 ± 0.069, the NP40-soluble protein abundance (GART; concentration: 8mM) was 0.942 ± 0.034 and the NP40-soluble protein abundance (GART; concentration: 10mM) was 0.953 ± 0.048. The NP40-soluble protein abundance (GSTM3; concentration: 1mM) was 0.969 ± 0.12, the NP40-soluble protein abundance (GSTM3; concentration: 2mM) was 0.968 ± 0.12 and the NP40-soluble protein abundance (GSTM3; concentration: 4mM) was 0.97 ± 0.1. For the same compound, the NP40-soluble protein abundance (GSTM3; concentration: 6mM) was 0.879 ± 0.15, the NP40-soluble protein abundance (GSTM3; concentration: 8mM) was 0.953 ± 0.081 and the NP40-soluble protein abundance (GSTM3; concentration: 10mM) was 0.941 ± 0.11. The NP40-soluble protein abundance (JUND; concentration: 1mM) was 0.951 ± 0.18, the NP40-soluble protein abundance (JUND; concentration: 2mM) was 0.888 ± 0.12 and the NP40-soluble protein abundance (JUND; concentration: 4mM) was 0.868 ± 0.07. The NP40-soluble protein abundance (JUND; concentration: 6mM) was 0.944 ± 0.1, the NP40-soluble protein abundance (JUND; concentration: 8mM) was 0.817 ± 0.081 and the NP40-soluble protein abundance (JUND; concentration: 10mM) was 0.761 ± 0.13. It also gave an NP40-soluble protein abundance (PHB; concentration: 1mM) of 0.94 ± 0.035, an NP40-soluble protein abundance (PHB; concentration: 2mM) of 0.91 ± 0.011 and an NP40-soluble protein abundance (PHB; concentration: 4mM) of 0.878 ± 0.034. It also gave an NP40-soluble protein abundance (PHB; concentration: 6mM) of 0.923 ± 0.043, an NP40-soluble protein abundance (PHB; concentration: 8mM) of 0.913 ± 0.029 and an NP40-soluble protein abundance (PHB; concentration: 10mM) of 0.904 ± 0.028.
